Results published in the supplement of paper PMC8728848.
This is one part of the list.

What was measured:
Assay in all cases: glycan array binding signal (z-score within array); higher = stronger binding
Details in all cases: glycan notation: IUPAC condensed, linker removed
[1] = molecular target: GalNAc(b1-4)GlcNAc(b1-2)Man
Summary of the method: (§1)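 The binding signal is a Z-score computed within each array and averaged over linkers. Arrays of the same protein sequence at different concentrations or buffers were also averaged together. Data originate from 3228 arrays in the Consortium for Functional Glycomics database, kept only where the protein sequence was available.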

[2] = molecular target: GalNAc(b1-4)GlcNAc(b1-2)Man(a1-3)[GalNAc(b1-4)GlcNAc(b1-2)Man(a1-6)]Man(b1-4)GlcNAc(b1-4)GlcNAc
Summary of the method: as §1

[3] = molecular target: GalNAc(b1-4)GlcNAc(b1-3)GalNAc(b1-4)GlcNAc
Summary of the method: as §1

[4] = molecular target: GalNAc(b1-4)GlcNAc6S
Summary of the method: as §1

[5] = molecular target: GalNAc(b1-6)GalNAc
Summary of the method: as §1

[6] = molecular target: GalNAc3S(b1-4)GlcNAc
Summary of the method: as §1

[7] = molecular target: GalNAc3S(b1-4)GlcNAc3S
Summary of the method: as §1

[8] = molecular target: GalNAc3S(b1-4)[Fuc(a1-3)]GlcNAc
Summary of the method: as §1

[9] = molecular target: GalNAc4S6S(b1-4)GlcNAc
Summary of the method: as §1

[10] = molecular target: GalNAc6S(b1-4)GlcNAc
Summary of the method: as §1

[11] = molecular target: Glc(a1-4)Glc
Summary of the method: as §1

[12] = molecular target: Glc(a1-4)Glc(a1-4)Glc(a1-4)Glc
Summary of the method: as §1

[13] = molecular target: Glc(a1-6)Glc(a1-6)Glc
Summary of the method: as §1

[14] = molecular target: Glc(a1-6)Glc(a1-6)Glc(a1-6)Glc
Summary of the method: as §1

[15] = molecular target: Glc(b1-4)Glc
Summary of the method: as §1

[16] = molecular target: Glc(b1-6)Glc
Summary of the method: as §1

[17] = molecular target: GlcA(b1-3)Gal
Summary of the method: as §1

[18] = molecular target: GlcA(b1-3)GlcNAc
Summary of the method: as §1

[19] = molecular target: GlcA(b1-6)Gal
Summary of the method: as §1

[20] = molecular target: GlcA3S(b1-3)Gal(b1-4)GlcNAc(b1-2)Man
Summary of the method: as §1

[21] = molecular target: GlcA3S(b1-3)Gal(b1-4)GlcNAc(b1-3)Gal(b1-4)Glc
Summary of the method: as §1

[22] = molecular target: GlcNAc(a1-3)Gal(b1-4)GlcNAc
Summary of the method: as §1

[23] = molecular target: GlcNAc(a1-4)Gal(b1-3)GlcNAc
Summary of the method: as §1

[24] = molecular target: GlcNAc(a1-4)Gal(b1-4)GalNAc
Summary of the method: as §1

[25] = molecular target: GlcNAc(a1-4)Gal(b1-4)GlcNAc
Summary of the method: as §1

[26] = molecular target: GlcNAc(a1-4)Gal(b1-4)GlcNAc(b1-3)Gal(b1-4)Glc
Summary of the method: as §1

[27] = molecular target: GlcNAc(a1-4)Gal(b1-4)GlcNAc(b1-3)Gal(b1-4)GlcNAc
Summary of the method: as §1

[28] = molecular target: GlcNAc(a1-4)Gal(b1-4)GlcNAc(b1-3)Gal(b1-4)GlcNAc(b1-3)Gal(b1-4)GlcNAc
Summary of the method: as §1

[29] = molecular target: GlcNAc(a1-4)Gal(b1-4)GlcNAc(b1-3)Gal(b1-4)[Fuc(a1-3)]GlcNAc(b1-3)Gal(b1-4)[Fuc(a1-3)]GlcNAc
Summary of the method: as §1

[30] = molecular target: GlcNAc(a1-6)Gal(b1-4)GlcNAc
Summary of the method: as §1

[31] = molecular target: GlcNAc(b1-2)Gal(b1-3)GalNAc
Summary of the method: as §1

[32] = molecular target: GlcNAc(b1-2)Man(a1-3)[GlcNAc(b1-2)Man(a1-6)]Man(b1-4)GlcNAc(b1-4)GlcNAc
Summary of the method: as §1

[33] = molecular target: GlcNAc(b1-2)Man(a1-3)[GlcNAc(b1-2)Man(a1-6)]Man(b1-4)GlcNAc(b1-4)[Fuc(a1-6)]GlcNAc
Summary of the method: as §1

[34] = molecular target: GlcNAc(b1-2)Man(a1-3)[GlcNAc(b1-4)][GlcNAc(b1-2)Man(a1-6)]Man(b1-4)GlcNAc(b1-4)GlcNAc
Summary of the method: as §1

[35] = molecular target: GlcNAc(b1-2)Man(a1-3)[GlcNAc(b1-4)][GlcNAc(b1-2)Man(a1-6)]Man(b1-4)GlcNAc(b1-4)[Fuc(a1-6)]GlcNAc
Summary of the method: as §1

[36] = molecular target: GlcNAc(b1-2)[GlcNAc(b1-4)]Man(a1-3)[GlcNAc(b1-2)Man(a1-6)]Man(b1-4)GlcNAc(b1-4)GlcNAc
Summary of the method: as §1

[37] = molecular target: GlcNAc(b1-2)[GlcNAc(b1-4)]Man(a1-3)[GlcNAc(b1-4)][GlcNAc(b1-2)Man(a1-6)]Man(b1-4)GlcNAc(b1-4)GlcNAc
Summary of the method: as §1

[38] = molecular target: GlcNAc(b1-2)[GlcNAc(b1-4)]Man(a1-3)[GlcNAc(b1-4)][GlcNAc(b1-2)[GlcNAc(b1-6)]Man(a1-6)]Man(b1-4)GlcNAc(b1-4)GlcNAc
Summary of the method: as §1

[39] = molecular target: GlcNAc(b1-2)[GlcNAc(b1-4)]Man(a1-3)[GlcNAc(b1-4)][GlcNAc(b1-2)[GlcNAc(b1-6)]Man(a1-6)]Man(b1-4)GlcNAc(b1-4)[Fuc(a1-6)]GlcNAc
Summary of the method: as §1

[40] = molecular target: GlcNAc(b1-2)[GlcNAc(b1-6)]Man(a1-6)[GlcNAc(b1-2)Man(a1-3)]Man(b1-4)GlcNAc(b1-4)GlcNAc
Summary of the method: as §1

[41] = molecular target: GlcNAc(b1-2)[GlcNAc(b1-6)]Man(a1-6)[GlcNAc(b1-2)Man(a1-3)]Man(b1-4)GlcNAc(b1-4)[Fuc(a1-6)]GlcNAc
Summary of the method: as §1

[42] = molecular target: GlcNAc(b1-2)[GlcNAc(b1-6)]Man(a1-6)[GlcNAc(b1-4)][GlcNAc(b1-2)Man(a1-3)]Man(b1-4)GlcNAc(b1-4)GlcNAc
Summary of the method: as §1

[43] = molecular target: GlcNAc(b1-3)Fuc
Summary of the method: as §1

[44] = molecular target: GlcNAc(b1-3)Gal
Summary of the method: as §1

[45] = molecular target: GlcNAc(b1-3)Gal(b1-3)GalNAc
Summary of the method: as §1

B1: MXA PilAct-eGFP (Myxococcus xanthus), Q59589 (protein)
chain: MRVSRFNPRNRGFTLIELMIVVAIIGILAAIAIPNFIKFQARSKQSEAKTNLKALYTAQKSFFSEKDRYSDFANEIGFAPERGNRYGYRVSAAAGDCEVRNAADLPVPAAGVPCISNDSFRFGANSAIDDPTPVVARFVPQGAAGWNTTLGVQPTIADCPNCNFFAGARGNADNEATFDDWVIAGFEGSGQVGPCSEAGNVASGTPYNTRNDVACDGAAQ
glycan array binding signal (z-score) [1]: -1.27
glycan array binding signal (z-score) [2]: -0.271
glycan array binding signal (z-score) [3]: -0.708
glycan array binding signal (z-score) [4]: -0.68
glycan array binding signal (z-score) [5]: -0.528
glycan array binding signal (z-score) [6]: -1.2
glycan array binding signal (z-score) [7]: -1.4
glycan array binding signal (z-score) [8]: -0.368
glycan array binding signal (z-score) [9]: -1.04
glycan array binding signal (z-score) [10]: 0.26
glycan array binding signal (z-score) [11]: -0.029
glycan array binding signal (z-score) [12]: -0.314
glycan array binding signal (z-score) [13]: -0.432
glycan array binding signal (z-score) [14]: -0.924
glycan array binding signal (z-score) [15]: -0.326
glycan array binding signal (z-score) [16]: 1.37
glycan array binding signal (z-score) [17]: 0.781
glycan array binding signal (z-score) [18]: -0.977
glycan array binding signal (z-score) [19]: -0.632
glycan array binding signal (z-score) [20]: 1.26
glycan array binding signal (z-score) [21]: 0.578
glycan array binding signal (z-score) [22]: -0.245
glycan array binding signal (z-score) [23]: 0.196
glycan array binding signal (z-score) [24]: 0.004
glycan array binding signal (z-score) [25]: 0.559
glycan array binding signal (z-score) [26]: -1.08
glycan array binding signal (z-score) [27]: -1.21
glycan array binding signal (z-score) [28]: 0.596
glycan array binding signal (z-score) [29]: 1.45
glycan array binding signal (z-score) [30]: -0.059
glycan array binding signal (z-score) [31]: -0.873
glycan array binding signal (z-score) [32]: 0.002
glycan array binding signal (z-score) [33]: 1.93
glycan array binding signal (z-score) [34]: -0.621
glycan array binding signal (z-score) [35]: 0.749
glycan array binding signal (z-score) [36]: -0.242
glycan array binding signal (z-score) [37]: -0.022
glycan array binding signal (z-score) [38]: 0.285
glycan array binding signal (z-score) [39]: -1.52
glycan array binding signal (z-score) [40]: 1.06
glycan array binding signal (z-score) [41]: 0.675
glycan array binding signal (z-score) [42]: -0.556
glycan array binding signal (z-score) [43]: 0.003
glycan array binding signal (z-score) [44]: -0.839
glycan array binding signal (z-score) [45]: 0.175
